Screening data, single-dose tests

Source: ChEMBL document CHEMBL3988442, “University of Dundee, Small-Polar-MMV Screening Library” (2021).

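Whole-cell growth test on Mycobacterium tuberculosis, read after 3 days in glucose-containing 7H9 medium; the read-out is not stated. Tested at 500 µM. Higher reads as more growth inhibition (inferred: compounds with an IC50 in retests scored well above the rest). Of about 18,000 compounds tested this way, about 1,400 (7.9%) reached 50% or more in at least one test.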

Each number is a percent effect as filed. The record does not define 0% and 100%; most values in the screen are far below 50% and negative numbers occur (in some assays of this library far below -100). The compounds are a random part of those screened.

compound,percent effect
CSc1cccc(NC(=O)C2CCCN2C(C)=O)c1 (configuration not stated),33.62
CN(C)C(CNC(=O)CN1CCCC1=O)c1cccs1 (configuration not stated),37.23
COCC1CCN(C(=O)c2c(C)cc(C)[nH]c2=O)C1 (configuration not stated),0.2374
NCC(=O)NCCN1CCCCCC1,15.39
CC(Oc1ccccc1)C(=O)NC1CCN(C)CC1 (configuration not stated),11.68
CNC(C)(C)CNC(=O)Nc1cc(OC)ccc1OC,12.67
CCOC(=O)c1cnn(-c2ccc(OCC)cc2)c1N,57.47
CNS(=O)(=O)c1cccc(C(=O)Nc2cccnc2)c1,2.763
CN1CCC(N(C)CC(O)COc2ccccc2)CC1 (configuration not stated),15.7
O=C(NC1CCN(c2ccccn2)CC1)c1cccs1,0.1478
CNC(=O)C1(c2cccc(Cl)c2)CC1,2.802
NC1CCOC2(CCCCC2)C1 (configuration not stated),20.98
Cc1nccn1CC1CCN(C(C)C(=O)N(C)C)CC1 (configuration not stated),-3.648
COCCNC(=O)CCN,10.13
CCOC(=O)c1cccnc1-n1cc(Br)cn1,49.87
Cc1cc(C)n(CC(=O)N(C)Cc2cc(C)on2)n1,27.43
CN(Cc1cccc(C#N)c1)C(=O)C1CC1,50.2
COCCn1cnnc1SCCN1CCC(C)C1 (configuration not stated),3.309
CCCc1nc(C(=O)NCCc2cccnc2)cs1,74.85
O=C(NC1CCNC1=O)c1sc2cccc(F)c2c1Cl (configuration not stated),7.605
Cc1ccc(CNC(=O)C2CCCCC(=O)N2)o1 (configuration not stated),14.27
COCCN(C)CCNC(=O)c1c(F)cccc1F,9.668
CC(N)CCNS(=O)(=O)c1ccccc1 (configuration not stated),12.24
Cc1ccc(S(N)(=O)=O)cc1N(C)C,-4.065
CN(C)CC(C)(C)CNC1CCN(C)CC1,-16.14
CCN(CC)Cc1ccc2c(c1)CNCCO2,-10.73
CNCc1ncc(C)c(OC)c1C,17.7
CC(Nc1cccc(OC(F)(F)F)c1)C(=O)NC(N)=O (configuration not stated),52.78
CC(=O)c1ccc(S(=O)(=O)NC(CN)C2CC2)cc1 (configuration not stated),9.237
CCC(C)C(=O)NCCNc1ccc(C(F)(F)F)cn1 (configuration not stated),67.65
CCC(NC(=O)CCCc1cn[nH]c1)[C@H]1C[C@H](O)C1 (some centres not stated),0.8156
CC(C)N1CCC(NC(=O)c2ccc3[nH]nnc3c2)C1 (configuration not stated),6.942
O=C(CCN1CCC(O)CC1)N1CCc2ccccc21,6.824
OCCN(CCO)Cc1cc(Br)cc2cccnc12,48.43
O=C1CCC2(CNC(=O)C3CC3)CCCC=C2N1 (configuration not stated),63.07
CCNCc1nccs1,11.32
CCC(=O)Nc1ccccc1C(=O)Nc1ccccn1,-9.641
CC(C)OCC(=O)N1C[C@H](C2CC2)[C@@H](N)C1,-0.6712
CCn1c(C(N)=O)cc2ccccc21,28.37
NCCN1C(=O)c2ccccc2S1(=O)=O,-3.057
CC(C(=O)Nc1cncc(Br)c1O)n1cncn1 (configuration not stated),-10.21
Cc1noc(CN(C)Cc2cncn2C(C)C)n1,0.7533
OC1CCN(Cc2ccccc2F)CC1,8.847
CC(C)n1cnnc1CC1CCCNC1 (configuration not stated),-7.577
CC(C)c1nnc(CN(C)CC(O)C2CC2)o1 (configuration not stated),1.266
Cc1ccc(F)cc1C(=O)N[C@@H]1CCNC[C@H]1O,8.352
NC1CCCN(Cc2ccccc2OCCO)CC1 (configuration not stated),24.65
Cc1cccc(NC(=O)CC2CCS(=O)(=O)C2)c1C (configuration not stated),3.583
CC1(C)Oc2ccc(NC(=O)C3CCOC3)cc2O1 (configuration not stated),59.73
C[C@@H](O)c1ccc(S(C)(=O)=O)cc1,5.896
CCOc1ccc(NC(=O)NC2CCN(C)CC2)cc1,0.09022
CCC[C@H]1CN(C(=O)CCCn2cccn2)C[C@@H]1N,16.33
CCCc1nnc(NC2CCN(C(=O)OCC)CC2)o1,59.68
OCCC1CCN(Cc2cccnc2)C1 (configuration not stated),-9.344
COc1ccc2[nH]c(CCCO)nc2c1,10.85
CC(C)c1nnc(NC(=O)N2CCN(C)CC2C)s1 (configuration not stated),15.74
NC(=O)C(NC(=O)CCc1ccco1)c1ccccc1 (configuration not stated),13.63
CC(C)c1cc(CN2CCn3nc(CO)cc3C2)no1,9.106
Cc1nccn1CC(=O)Nc1ccnn1C,12.91
Cn1ccc(NC(=O)COc2ccccc2)n1,43.86
Cc1cc(C)n(CC(=O)NCC2(C)CCOCC2)n1,14.39
CSCC(=O)N1CCCCCC1,1.326
COc1cc(NC(=O)CN2CC(O)C2)cc(OC)c1,1.256
CN1CCN(C2CCNCC2)C1=O,0.9094
FC(F)(F)COC1CCCNC1 (configuration not stated),-3.529
NCCCN(C(=O)C1CCC1)C1CC1,6.473
NC1CCCOc2ccc(F)cc21 (configuration not stated),15.91
N#CCCCS(=O)(=O)N1CCCC1c1ccco1 (configuration not stated),11.14
CC(OCc1ccccc1)C(=O)NCC(C)(C)C(N)=O (configuration not stated),2.486
CN1CC(NC(=O)CCOc2ccc(Cl)cc2)CC1=O (configuration not stated),8.957
CCOC(=O)N1CCC(N)C1 (configuration not stated),-1.818

The first 4 entries again:

CSc1cccc(NC(=O)C2CCCN2C(C)=O)c1 (configuration not stated) read 33.62%.
CN(C)C(CNC(=O)CN1CCCC1=O)c1cccs1 (configuration not stated) read 37.23%.
COCC1CCN(C(=O)c2c(C)cc(C)[nH]c2=O)C1 (configuration not stated) read 0.2374%.
NCC(=O)NCCN1CCCCCC1 read 15.39%.